The target of the assay is Cathepsin B (Rattus norvegicus, UniProt P00787). Briefly: In vitro assay of inhibition of Cathepsin B (N-CBZ-Phe-Arg-AMC substrate). In kind it is biochemical. As for the experimental part:
After 10 min of incubation at room temperature a 20 μl of 5 mM substrate (N-CBZ-Phe-Arg-AMC, dissolved in DMSO) was added to initiate reaction. Reading is followed up for 10 min at the Fluoroscan reader (excitation at 380 nm, emission at 460 nm).

The chains behind the UniProt entries cited, without tags or fusion partners. Residues count along the entry.
UniProt P00787, 80-339: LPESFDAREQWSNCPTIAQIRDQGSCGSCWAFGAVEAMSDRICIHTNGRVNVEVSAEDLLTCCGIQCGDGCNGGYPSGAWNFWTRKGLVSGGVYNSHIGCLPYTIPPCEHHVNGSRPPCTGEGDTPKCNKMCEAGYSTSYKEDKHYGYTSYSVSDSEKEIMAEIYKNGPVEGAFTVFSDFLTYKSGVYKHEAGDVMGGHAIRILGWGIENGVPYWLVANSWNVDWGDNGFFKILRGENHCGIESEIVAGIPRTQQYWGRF

In the case of `CC(=O)O[C@@H]1NC(=O)[C@H]1NC(=O)[C@H](CC(C)C)NC(=O)OCc1ccccc1` [Example 8, (3S,4S)-3-(N-benzyloxycarbonyl-L-leucyl)-amino-4-acetoxy-azetidin-2-one], the IC50 amounted to 1460 nM. That is a single-digit micromolar value.

For orientation: IC50 means the midpoint of a concentration-inhibition curve.

Values taken from US5986108A, “4-substitued-3-[1 or 2 amino acid residue]-azetidin-2-one derivatives useful as cysteine proteinase inhibitor” (Synphar Laboratories, Inc., priority 1997, dated 1999).
